Data from the ROBIN nucleic acid binder screens, doi:10.1002/anie.202211358.

Targets (5′ to 3′):
PreQ1: PreQ1 riboswitch RNA pseudoknot, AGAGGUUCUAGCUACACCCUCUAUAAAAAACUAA. From B. subtilis. About 170 hits among about 24,000 compounds.
TPP: TPP riboswitch RNA three-way junction, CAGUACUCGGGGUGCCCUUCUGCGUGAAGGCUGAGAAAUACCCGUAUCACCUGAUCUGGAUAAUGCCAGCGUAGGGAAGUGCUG. About 160 hits among about 24,000 compounds.
SAM-II: SAM-II riboswitch RNA pseudoknot, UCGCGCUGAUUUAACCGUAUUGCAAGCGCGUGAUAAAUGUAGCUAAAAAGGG. About 200 hits among about 21,000 compounds.

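Each compound is printed as two spots on a slide made to bind it covalently, so it has no test concentration; the read-out is fluorescence of the bound, labelled oligonucleotide. The data file lists only calls. An earlier report of the laboratory on the PreQ1, TPP and SAM-II riboswitches (doi:10.1038/s41467-019-09493-3) used 1 µM RNA for 2 h and required a mean Z-score above 3 (spot signal-to-noise against the whole library), a score well above that on a control array, and duplicate spots agreeing (coefficient of variation under 100); it then also set aside compounds that hit other targets, which this list keeps. The cut-offs behind this list may differ. These are primary screening calls, not affinities; a compound without a hit may have attached poorly or may still bind in solution.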
Key: hit = hit, no hit = tested without a hit.
Compounds were drawn at random from those tested, without regard to their results.
A target missing from an entry has no call listed here.
A dash means that no call is listed here.

Compound,PreQ1,TPP,SAM-II
CCN(CC)c1ccc(CNCCNC(=O)c2nonc2N)cc1,no hit,no hit,no hit
NCCCCCC(=O)O,no hit,no hit,no hit
CCOC(=O)c1cnc2cc(C(F)(F)F)ccc2c1NCCCN1CCOCC1,no hit,no hit,no hit
CCOC(=O)c1cnn(Cc2ccccc2)c1N,no hit,no hit,no hit
CCC(O)Cn1nc(-c2ccc(O)cc2)nc1CCc1cccnc1 (configuration not stated),no hit,no hit,no hit
Cc1ccc(-n2nnnc2-c2cccnc2)cc1,no hit,no hit,no hit
CN1CCC(N2CCC(n3ccnc3-c3ccc(CO)o3)CC2)CC1,no hit,no hit,no hit
Cc1ccc(-c2nn3c(NCCN(C)C)cc(C)nc3c2C)cc1,no hit,no hit,-
COc1cccc(CN2CCN(C(C(=O)O)c3ccc(N)nc3)CC2=O)c1 (configuration not stated),no hit,no hit,no hit
Nc1nonc1C(=O)N1CCN(C(=O)Nc2cccc(F)c2)CC1,no hit,no hit,-
Nc1c(Nc2ccc(F)cc2)c2ccccc2oc1=O,no hit,no hit,no hit
COc1ccc(CNCCc2c[nH]c3ccccc23)cc1OC,no hit,no hit,no hit
O=C(CN1C(=O)CNC1=O)N1CCC(C(O)c2ccccn2)CC1 (configuration not stated),no hit,no hit,no hit
Cc1ncnc(N2CCC(C(O)CC(C)C)CC2)c1C (configuration not stated),no hit,no hit,no hit
C=CCN1C(=O)C2(c3ccccc31)c1c(oc3ccccc3c1=O)C(=O)N2CCCO (configuration not stated),no hit,no hit,-
Cc1cc(C)cc(NC(=O)c2nnn(CC(=O)Nc3c(C)cc(C)cc3C)c2N)c1,no hit,no hit,no hit
Cc1cccc(-n2nc(C(=O)N(CCO)CCO)nc2-c2ccccc2)c1,no hit,no hit,-
COc1cccc(CN2c3ccccc3C3=C(C(c4ccc(C)cc4)C(C#N)=C(N)O3)S2(=O)=O)c1 (configuration not stated),no hit,no hit,no hit
Cc1cc(=O)c2c(o1)C(=O)c1occc1C2=O,no hit,no hit,no hit
Cc1cnn(C2CCCC2)c1NC(=O)NCCCNc1cccnc1,no hit,no hit,no hit
Cc1ccc(SCCCN(C)Cc2cc3n(n2)CCCNC3)cc1,no hit,no hit,no hit
COc1ccc2c(c1OC)C(=O)OC2Nc1cccc(C)c1 (configuration not stated),no hit,no hit,no hit
O=C(NC1(CN2CCOCC2)CCCC1)c1ccc2c(c1)ncn2CCO,no hit,no hit,no hit
CCOC(=O)c1nc(N)sc1C(=O)OCC,no hit,no hit,no hit
Cc1cccc(C)c1OCC(O)CN1CCN(Cc2ccccc2)CC1.Cl.Cl (configuration not stated),no hit,no hit,no hit
O=c1nc(SCc2ccc(Cl)cc2Cl)cc[nH]1,no hit,no hit,no hit
Cc1ccc(-n2cccn2)cc1S(=O)(=O)NCc1cc2n(n1)CCNC2,no hit,no hit,no hit
COc1cc(Cl)c(C)cc1NC(=O)N1CCOCC1CO (configuration not stated),no hit,no hit,no hit
COc1ccc(-c2oc3c(CC=C(C)C)c(OC4O[C@H](CO)[C@@H](O)[C@H](O)[C@@H]4O)cc(O)c3c(=O)c2OC2O[C@@H](C)[C@H](O)[C@@H](O)[C@@H]2O)cc1 (some centres not stated),no hit,no hit,no hit
O=C(NCCNc1cccnc1)Nc1ccc(C(=O)NCC2CCCO2)cc1 (configuration not stated),no hit,no hit,no hit
Fc1ccc(NC(c2ccccc2)c2nnc(-c3ccccc3F)o2)cc1 (configuration not stated),no hit,no hit,no hit
COc1cccc([C@H]2CN(C(=O)c3scc4c3CCCC4)C[C@@H]2N)c1,no hit,no hit,no hit
Cc1cccc2c1CC[C@H](CN1CCC(c3c(Cl)cccc3Cl)CC1)C[C@@H]2O,no hit,no hit,no hit
Cc1ccc(C2C(C#N)=C(N)OC3=C2C(=O)CC(C)(C)C3)cc1 (configuration not stated),no hit,no hit,no hit
OC1(c2ccccc2)CCN(c2ncnc3c2CCNCC3)C1 (configuration not stated),no hit,hit,no hit
Cc1cccc(CN2CCC3(CC2)CCN(CC(=O)O)CC3CO)c1 (configuration not stated),no hit,no hit,no hit
CCOC(=O)[C@]12CCCN[C@@H]1CCN(c1cnc3ccccc3n1)C2,no hit,no hit,no hit
Cc1nc(-c2cccc(CO)c2)c2ccccc2n1,no hit,no hit,no hit
COc1ccccc1-c1nc2c(OC)ccc(OC)c2cc1CN1CC[C@@H](O)C1,no hit,no hit,no hit
Cc1nc(CCN)cc(N(C)Cc2ncccc2C)n1,no hit,no hit,no hit
COc1ccc(CNCc2cc(Br)ccc2OC)cc1,no hit,no hit,no hit
Cc1ccc(C(=O)c2sc3nc(C)cc(C)c3c2N)cc1,no hit,no hit,no hit
CNc1ccnc(N2CCC3(CC2)Nc2ccccc2NC3=O)n1,no hit,no hit,no hit
O=C1CCc2cc(S(=O)(=O)NCc3cc4n(n3)CCNC4)ccc2N1,no hit,no hit,no hit
CC1CCc2sc(C(=O)N3CCc4nc(N)sc4C3)cc2C1 (configuration not stated),no hit,no hit,no hit
CCNc1nc(C#N)nc(N2CCOCC2)n1,no hit,no hit,no hit
C[C@H](O)CNC(=O)c1cn2cc(-c3cccs3)n(CC3CC3)c(=O)c2n1,no hit,no hit,no hit
Cc1noc(C)c1CN1CC2(CCN(c3cccc(C(C)O)n3)CC2)CC1=O (configuration not stated),no hit,no hit,no hit
Cn1cnnc1Sc1ccc(-c2nccn2[C@@H]2CS(=O)(=O)C[C@H]2O)o1,no hit,no hit,no hit

For reference, 4 entries once more:

* COc1ccc(CNCCc2c[nH]c3ccccc23)cc1OC : PreQ1: no hit; TPP: no hit; SAM-II: no hit
* O=C1CCc2cc(S(=O)(=O)NCc3cc4n(n3)CCNC4)ccc2N1 : PreQ1: no hit; TPP: no hit; SAM-II: no hit
* Cc1cc(C)cc(NC(=O)c2nnn(CC(=O)Nc3c(C)cc(C)cc3C)c2N)c1 : PreQ1: no hit; TPP: no hit; SAM-II: no hit
* Cc1ccc(-c2nn3c(NCCN(C)C)cc(C)nc3c2C)cc1 : PreQ1: no hit; TPP: no hit